This passage reports binding results from PMC9513230, “Inhibition of Plasmodium falciparum Hsp70-Hop partnership by 2-phenylthynesulfonamide” (Frontiers in Molecular Biosciences, 2022).

Chains of the proteins cited; added tags and fusions are not shown. Residues count along the entry.
UniProt P02769, residues 25-607: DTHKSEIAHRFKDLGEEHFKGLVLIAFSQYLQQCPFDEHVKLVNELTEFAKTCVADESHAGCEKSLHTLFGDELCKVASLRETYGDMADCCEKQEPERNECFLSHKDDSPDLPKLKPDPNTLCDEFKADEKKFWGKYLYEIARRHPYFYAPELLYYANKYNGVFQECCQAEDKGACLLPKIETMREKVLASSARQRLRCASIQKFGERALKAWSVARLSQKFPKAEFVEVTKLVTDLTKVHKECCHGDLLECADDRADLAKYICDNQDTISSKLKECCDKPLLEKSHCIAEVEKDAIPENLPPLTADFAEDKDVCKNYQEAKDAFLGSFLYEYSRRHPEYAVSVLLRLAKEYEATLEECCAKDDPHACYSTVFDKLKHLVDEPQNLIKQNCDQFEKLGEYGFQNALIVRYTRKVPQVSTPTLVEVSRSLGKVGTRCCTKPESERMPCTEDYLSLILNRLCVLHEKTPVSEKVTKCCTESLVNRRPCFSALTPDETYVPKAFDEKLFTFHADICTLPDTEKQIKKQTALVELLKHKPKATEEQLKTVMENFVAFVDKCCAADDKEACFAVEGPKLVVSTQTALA
UniProt Q8IB24: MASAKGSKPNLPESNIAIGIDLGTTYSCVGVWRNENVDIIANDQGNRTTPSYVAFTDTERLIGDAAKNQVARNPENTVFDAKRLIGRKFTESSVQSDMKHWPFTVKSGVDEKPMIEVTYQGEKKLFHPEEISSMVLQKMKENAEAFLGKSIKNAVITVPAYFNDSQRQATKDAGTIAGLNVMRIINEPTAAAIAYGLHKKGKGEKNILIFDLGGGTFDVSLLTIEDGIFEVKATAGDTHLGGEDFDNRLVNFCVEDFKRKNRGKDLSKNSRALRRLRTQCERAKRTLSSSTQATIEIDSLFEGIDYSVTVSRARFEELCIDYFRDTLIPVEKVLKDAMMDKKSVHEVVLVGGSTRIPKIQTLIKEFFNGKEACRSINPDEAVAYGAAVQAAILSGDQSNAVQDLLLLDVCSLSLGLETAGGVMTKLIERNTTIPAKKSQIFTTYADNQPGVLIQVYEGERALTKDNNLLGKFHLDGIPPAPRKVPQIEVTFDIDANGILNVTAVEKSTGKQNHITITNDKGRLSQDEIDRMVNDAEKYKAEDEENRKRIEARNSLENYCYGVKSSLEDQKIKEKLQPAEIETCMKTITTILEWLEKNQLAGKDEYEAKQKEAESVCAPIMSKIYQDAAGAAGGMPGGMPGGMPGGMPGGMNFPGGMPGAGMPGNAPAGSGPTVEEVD

Results are given in words; binding and its absence hold for the method and conditions named.

For this assay, the target named is BSA (UniProt P02769). The experiment in a line: ELISA; both purified.

Turning to “Plasmodium falciparum Hsp70-1 (from UniProt Q8IB24 1-677)”, the binding entry was “no binding”.
